# The supplement of paper PMC10338343
# ± gives the standard deviation. This is a selection; strong and weak results do not stand in their true shares. The uncertainty is large for many entries.
# System: MILI (PIWIL2) piRISC loaded with piRNA #2 (26 nt)
# Assay: pre-steady-state target cleavage rate (min^-1); MIWI and MILI are mouse PIWI proteins and EfPiwi is from a freshwater sponge; tags in brackets are library labels; higher = faster piRNA-guided slicing of the target
# Details: guide: piRNA #2 5'p-UUAGGUAACCCAGUAGAUCCAGAGGA; auxiliary factor: 500 nM mouse GTSF1
# How it was run: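 Sequencing of uncleaved targets, normalised to depth and to weakly complementary targets, was the readout of this Cleave-'n-Seq assay. A transcribed, DNA-blocked target RNA library (0.1 nM) was mixed with 1 nM active affinity-purified piRISC carrying one synthetic guide, with or without 500 nM GTSF1 partner protein, in HEPES–potassium acetate buffer at 33 °C for 0–8 or 0–960 min. Three trials were pooled, k3 was capped at 0.0001 min^-1, and a burst-and-steady-state fit gave the pre-steady-state cleavage rate.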
row,Sequence,pre-steady-state target cleavage rate
1,CUUAAGGAGUGGAUCUACUGUGGUUACCUAA,0.000924 ± 0.01
2,CUUAAGGAGACCUAGAACUGGGUCACCUAA,0.000262 ± 0.026
3,CUUAAGGAGAGGAUCUACUGGGUUACGUAA,0.00115 ± 0.011
4,CUUAAGGAGACCUACUACUGGGUGACCUAA,0.000154 ± 0.061
5,CUUAAGGAGACCUUCUACUGCGUUACCUUA,0.000807 ± 0.022
6,CUUAAGGACUGGAUCUACGGGGUUACCUAA,0.0466 ± 0.013
7,CUUAAGGAGACGAUCCUACUGGGUUACCUAA,0.00105 ± 0.01
8,CUUAAGGACUGGAUGUACUGGGUUUCCUAA,0.00686 ± 0.01
9,CUUAAGGUCUGGAUCUAACUGGGUUACCUAA,0.000306 ± 0.012
10,CUUAAGGAGAGGAACUACUGCGUUACCUAA,0.000562 ± 0.016
11,CUUAAGGAGUGGAUCUCACUGGGUUACCUAA,0.000181 ± 0.022
12,CUUAAGGAGACCUUCUACUGGGAUACCUUA,0.000228 ± 0.026
13,CUUAUCCACUGGAUCUACUGGCUUACCUAA,0.000737 ± 0.016
14,CUUAAGGUCUCGAUCUACUGGCUUACCUAA,0.000919 ± 0.016
15,CUUAAGGAGUGGAUCUACAGGGUUACGUAA,0.00165 ± 0.0062
16,CUUAAGGACUGGAUCUACUGGGUCUACCUAA,0.00239 ± 0.013
17,CUUAAGGAGUGGAUCAAGUGGGUUACCUAA,0.000352 ± 0.011
18,CUUAAGGAGACCUUCUACCUGGGUUACCUAA,0.000919 ± 0.014
19,CUUAAGGAGAGGAACUACUGGGUAACCUAA,0.001 ± 0.012
20,CUUAAGCUCUGGAUCUAGACGGUUACCUAA,0.00153 ± 0.0058
21,CUUAAGGAGUAGAUCUACUGGGUUACCUAA,0.00155 ± 0.011
22,CUUAAGGAGAGGAUCUACACGGUUACCUAA,0.000672 ± 0.01
23,CUUAAGGAGACCUUCUUCUGGGAUACCUAA,0.00073 ± 0.019
24,CUUAAGGACAGGAACUACUGGGUUACCUAA,0.00366 ± 0.013

row,Sequence,pre-steady-state target cleavage rate
1,CUUAAGGAGAGGAUCUACUGGGUUCACCUAA,0.00293 ± 0.0035
2,CUUAAGGAGACCUUGUUCUGGGUUACCUAA,0.000716 ± 0.018
3,CUUAAGGAGAGGAUCUACUGGGUGUACCUAA,0.00182 ± 0.0098
4,CUUAAGGAGACCAUCUACUGGGUUUACCUAA,0.00108 ± 0.0063
5,CUUAAGGAGACCAUCUACAGGCUUACCUAA,0.00183 ± 0.0075
6,CUUAAGGAGACGAUGUACUGGGUUUCCUAA,0.000456 ± 0.018
7,CUUAAGGUCAGGAUCUACUGGGUUACCUUA,0.0166 ± 0.0094
8,CUUAAGGAGACCUUCUCCUGGGUUACCUAA,0.000629 ± 0.016
9,CUUAAGGAGAGCAUCUAGUGGGUUACCUAA,0.00422 ± 0.0049
10,CUUAAGGAGACCUAGUACUCGGUUACGUAA,0.000222 ± 0.031
11,CUUAAGGAGACGAUCUACUGGCUUACCUUA,0.000471 ± 0.017
12,CUUAAGGACUGGAUCAUCUGGGUUACCUAA,0.00673 ± 0.01
13,CUUAAGGAGUGGUUCUACUGGCUUACCUAA,0.000615 ± 0.022
14,CUUAAGGAGACCACUCUACUGGGUUACCUAA,0.000919 ± 0.01
15,CUUAAGGAGUGGAUUACUGGGUUACCUAA,0.000954 ± 0.015
16,CUUAAGGAGACCUUCUACAGGCUUACCUAA,0.000521 ± 0.014
17,CUUAAGGAGACCAUCUACUGGGUUACCAAA,0.000732 ± 0.01
18,CUUAAGGAGACCAUCUACUAGGUUACCUAA,0.00108 ± 0.0071
19,CUUAAGGACUGGAUCUACUGGGUUACCCUAA,0.00158 ± 0.018
20,CUUAAGGAGACGAUCUACUGGGUUAGCUAA,0.00056 ± 0.0092
21,CUUAAGGAGACGAUCUUGAGGGUUACCUAA,0.000764 ± 0.0099
22,CUUAAGGAGACCAUCUACAGGGUUACCUAA,0.00227 ± 0.0047
23,CUUAAGGAGACCUACUACUGGGUUGACCUAA,0.000282 ± 0.039
24,CUUAACCUCUGGAUCUACUCGGUUACCAAA,0.000971 ± 0.014

# Quoted from the listing.
# CUUAAGCUCUGGAUCUAGACGGUUACCUAA – pre-steady-state target cleavage rate: 0.00153 ± 0.0058
# CUUAAGGAGACCUUCUACCUGGGUUACCUAA – pre-steady-state target cleavage rate: 0.000919 ± 0.014
# CUUAAGGUCAGGAUCUACUGGGUUACCUUA – pre-steady-state target cleavage rate: 0.0166 ± 0.0094
# CUUAAGGAGUGGUUCUACUGGCUUACCUAA – pre-steady-state target cleavage rate: 0.000615 ± 0.022

# Further records:

row,Sequence,pre-steady-state target cleavage rate
1,CUUAAGGAGACGAUCAACUGGGUUACCUAA,0.00125 ± 0.0055
2,CUUAAGGACUCGAUCUACUGGGUAACCUAA,0.00424 ± 0.0077
3,CUUAAGGAGACCUACUCCUGGGUUACCUAA,0.000934 ± 0.015
4,CUUAAGCUCUGGAUCUACUGGGUAUGGAUA [g8:g24:cont:t1A],0.000397 ± 0.029
5,CUUAAGGUCUGGAUCUACUCGGUUACCUUA,0.000557 ± 0.021
6,CUUAUCCUCUGGAUCUACACCCAAUGGAUA [g13:g26:cont:t1A],0.000178 ± 0.033
7,CUUAAGGUCUGGAUCUACUGGCUUUCCUAA,0.000261 ± 0.024
8,CUUAAGGAGUGCAUGUACUGGGUUACCUAA,0.000307 ± 0.03
9,CUUAAGCACUGCAUCUACUGGGUUACCUAA,0.0725 ± 0.015
10,CUUAAGGAGACGAUCAUACUGGGUUACCUAA,0.000623 ± 0.014
11,CUUAAGGAGACCUUCAACUGCGUUACCUAA,0.000233 ± 0.038
12,CUUAAGGAGAGGAUCUACUGGGUUACACUAA,0.00101 ± 0.013
13,CUUAAGGAGACCUUCUAACUGGGUUACCUAA,0.0005 ± 0.013
14,CUUAACCUCUGGAUCUACUGGUGUUACCUAA,0.0013 ± 0.0068
15,CUUAAGGAGACCAUCUGACUGGGUUACCUAA,0.000219 ± 0.027
16,CUUAAGGACUGGAUCUACUGGGUCACCUAA,0.00106 ± 0.026
17,CUUAUCCUCAGGAUCUACUCGGUUACCUAA,0.00098 ± 0.018
18,CUUAUCCUCUGGAUCAACUCGGUUACCUAA,0.000953 ± 0.013
19,CUUAACCUCUGGAUCUACUCGGUUACCUAA,0.00359 ± 0.005
20,CUUAAGGAGACGUUCUACUCGGUUACCUAA,0.000176 ± 0.039
21,CUUAAGGAGUGCAUCUACUGGGUAACCUAA,0.00169 ± 0.011
22,CUUAAGCUCUGCAUCUACUGGCUUACCUAA,0.00185 ± 0.0066
23,CUUAACCUCUGGAUCUACUGGCGUUACCUAA,0.0016 ± 0.0048
